Source: the supplement of paper PMC2577665
± gives the standard deviation of the averaged measurements. Single values of this set are uncertain.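 Each test well overexpressed one poorly characterized human cDNA in ERalpha-negative HeLa cells together with transfected ERalpha and a reporter carrying two estrogen response elements. A gene counted as a repressor hit if it cut the signal to the level of the BRCA1 positive control (about 0.6 of empty vector) or lower.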

System: ERE-luciferase reporter with exogenous ERalpha in HeLa cells
Experiment: relative ERE luciferase activity (Firefly/Renilla) upon cDNA overexpression, relative to empty vector (fold of empty vector); higher = stronger ERalpha transactivation (less repression)
Details: 17beta-estradiol: 10 nM; 12 h

| Sequence | relative ERE luciferase activity |
| --- | --- |
| MDQKILSLAAEKTADKLQEFLQTLREGDLTNLLQNQAVKGKVAGALLRAIFKGSPCSEEAGTLRRRKIYTCCIQLVESGDLQKEIASEIIGLLMLEAHHFPGPLLVELANEFISAVREGSLVNGKSLELLPIILTALATKKENLAYGKGVLSGEECKKQLINTLCSGRWDQQYVIQLTSMFKDVPLTAEEVEFVVEKALSMFSKMNLQEIPPLVYQLLVLSSKGSRKSVLEGIIAFFSALDKQHNEEQSGDELLDVVTVPSGELRHVEGTIILHIVFAIKLDYELGRELVKHLKVGQQGDSNNNLSPFSIALLLSVTRIQRFQDQVLDLLKTSVVKSFKDLQLLQGSKFLQNLVPHRSYVSTMILEVVKNSVHSWDHVTQGLVELGFILMDSYGPKKVLDGKTIETSPSLSRMPNQHACKLGANILLETFKIHEMIRQEILEQVLNRVVTRASSPISHFLDLLSNIVMYAPLVLQSCSSKVTEAFDYLSFLPLQTVQRLLKAVQPLLKVSMSMRDCLILVLRKAMFANQLDARKSAVAGFLLLLKNFKVLGSLSSSQCSQSLSVSQVHVDVHSHYNSVANETFCLEIMDSLRRCLSQQADVRLMLYEGFYDVLRRNSQLANSVMQTLLSQLKQFYEPKPDLLPPLKLEACILTQGDKISLQEPLDYLLCCIQHCLAWYKNTVIPLQQGEEEEEEEEAFYEDLDDILESITNRMIKSELEDFELDKSADFSQSTSIGIKNNICAFLVMGVCEVLIEYNFSISSFSKNRFEDILSLFMCYKKLSDILNEKAGKAKTKMANKTSDSLLSMKFVSSLLTALFRDSIQSHQESLSVLRSSNEFMRYAVNVALQKVQQLKETGHVSGPDGQNPEKIFQNLCDITRVLLWRYTSIPTSVEESGKKEKGKSISLLCLEGLQKIFSAVQQFYQPKIQQFLRALDVTDKEGEEREDADVSVTQRTAFQIRQFQRSLLNLLSSQEEDFNSKEALLLVTVLTSLSKLLEPSSPQFVQMLSWTSKICKENSREDALFCKSLMNLLFSLHVSYKSPVILLRDLSQDIHGHLGDIDQDVEVEKTNHFAIVNLRTAAPTVCLLVLSQAEKVLEEVDWLITKLKGQVSQETLSEEASSQATLPNQPVEKAIIMQLGTLLTFFHELVQTALPSGSCVDTLLKDLCKMYTTLTALVRYYLQVCQSSGGIPKNMEKLVKLSGSHLTPLCYSFISYVQNKSKSLNYTGEKKEKPAAVATAMARVLRETKPIPNLIFAIEQYEKFLIHLSKKSKVNLMQHMKLSTSRDFKIKGNILDMVLREDGEDENEEGTASEHGGQNKEPAKKKRKK [FANCI] | 1.06 ± 0.19 |
| MTKTALLKLFVAIVITFILILPEYFKTPKERTLELSCLEVCLQSNFTYSLSSLNFSFVTFLQPVRETQIIMRIFLNPSNFRNFTRTCQDITGEFKMCSSCLVCESKGNMDFISQEQTSKVLIRRGSMEVKANDFHSPCQHFNFSVAPLVDHLEEYNTTCHLKNHTGRSTIMEDEPSKEKSINYTCRIMEYPNDCIHISLHLEMDIKNITCSMKITWYILVLLVFIFLIILTIRKILEGQRRVQKWQSHRDKPTSVLLRGSDSEKLRALNVQVLSAETTQRLPLDQVQEVLPPIPEL [TMEM156] | 1.02 |
| MEKTELIQKAKLAEQAERYDDMATCMKAVTEQGAELSNEERNLLSVAYKNVVGGRRSAWRVISSIEQKTDTSDKKLQLIKDYREKVESELRSICTTVLELLDKYLIANATNPESKVFYLKMKGDYFRYLAEVACGDDRKQTIDNSQGAYQEAFDISKKEMQPTHPIRLGLALNFSVFYYEILNNPELACTLAKTAFDEAIAELDTLNEDSYKDSTLIMQLLRDNLTLWTSDSAGEECDAAEGAEN [YWHAQ] | 1.03 |
| MSFRKVVRQSKFRHVFGQPVKNDQCYEDIRVSRVTWDSTFCAVNPKFLAVIVEASGGGAFLVLPLSKTGRIDKAYPTVCGHTGPVLDIDWCPHNDEVIASGSEDCTVMVWQIPENGLTSPLTEPVVVLEGHTKRVGIIAWHPTARNVLLSAGCDNVVLIWNVGTAEELYRLDSLHPDLIYNVSWNHNGSLFCSACKDKSVRIIDPRRGTLVAEREKAHEGARPMRAIFLADGKVFTTGFSRMSERQLALWDPENLEEPMALQELDSSNGALLPFYDPDTSVVYVCGKGDSSIRYFEITEEPPYIHFLNTFTSKEPQRGMGSMPKRGLEVSKCEIARFYKLHERKCEPIVMTVPRKSDLFQDDLYPDTAGPEAALEAEEWVSGRDADPILISLREAYVPSKQRDLKISRRNVLSDSRPAMAPGSSHLGAPASTTTAADATPSGSLARAGEAGKLEEVMQELRALRALVKEQGDRICRLEEQLGRMENGDA [CORO1B] | 0.914 |
| METLSQDSLLECQICFNYYSPRRRPKLLDCKHTCCSVCLQQMRTSQKDVRCPWCRGVTKLPPGFSVSQLPDDPEVLAVIAIPHTSEHTPVFIKLPSNGCYMLPLPISKERALLPGDMGCRLLPGSQQKSVTVVTIPAEQQPLQGGAPQEAVEEEQDRRGVVKSSTWSGVCTVILVACVLVFLLGIVLHNMSCISKRFTVISCG [RNF152] | 1.11 |
